Test results: publication PMC7835043
Results are given in words; binding and its absence hold for the method and conditions named. In cells and extracts the contact can be indirect.

Chains of the proteins cited; added tags and fusions are not shown. Residues count along the entry.
UniProt O75460, residues 19-977: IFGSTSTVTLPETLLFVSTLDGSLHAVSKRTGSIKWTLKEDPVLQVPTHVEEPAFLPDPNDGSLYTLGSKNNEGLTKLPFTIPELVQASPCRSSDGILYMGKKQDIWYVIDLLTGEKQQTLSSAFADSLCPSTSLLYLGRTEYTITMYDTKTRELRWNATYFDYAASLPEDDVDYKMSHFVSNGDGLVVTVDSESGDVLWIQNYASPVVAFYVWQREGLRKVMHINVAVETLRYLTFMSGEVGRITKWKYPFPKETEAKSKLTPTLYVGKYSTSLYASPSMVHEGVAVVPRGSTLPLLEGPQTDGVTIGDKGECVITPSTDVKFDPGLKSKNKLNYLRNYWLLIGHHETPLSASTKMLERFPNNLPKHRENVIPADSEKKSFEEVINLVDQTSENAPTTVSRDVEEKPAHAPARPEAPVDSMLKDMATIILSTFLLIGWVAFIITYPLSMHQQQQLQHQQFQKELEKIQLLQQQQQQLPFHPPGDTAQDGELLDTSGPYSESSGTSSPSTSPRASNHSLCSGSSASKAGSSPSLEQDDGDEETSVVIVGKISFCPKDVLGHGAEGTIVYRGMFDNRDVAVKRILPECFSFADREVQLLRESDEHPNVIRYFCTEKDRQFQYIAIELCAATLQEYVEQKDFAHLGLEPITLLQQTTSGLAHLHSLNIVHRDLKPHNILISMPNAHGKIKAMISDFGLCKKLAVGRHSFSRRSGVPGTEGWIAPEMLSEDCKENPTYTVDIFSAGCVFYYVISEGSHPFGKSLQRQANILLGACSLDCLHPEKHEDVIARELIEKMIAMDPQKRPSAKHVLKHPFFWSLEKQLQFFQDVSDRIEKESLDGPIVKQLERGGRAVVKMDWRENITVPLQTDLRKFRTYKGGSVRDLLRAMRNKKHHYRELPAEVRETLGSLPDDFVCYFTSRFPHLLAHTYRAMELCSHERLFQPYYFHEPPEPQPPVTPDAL

Biological target: T1, coiled-coil domain containing 170 (CCDC170) (human) (UniProt Q8IYT3)
T1 sequence: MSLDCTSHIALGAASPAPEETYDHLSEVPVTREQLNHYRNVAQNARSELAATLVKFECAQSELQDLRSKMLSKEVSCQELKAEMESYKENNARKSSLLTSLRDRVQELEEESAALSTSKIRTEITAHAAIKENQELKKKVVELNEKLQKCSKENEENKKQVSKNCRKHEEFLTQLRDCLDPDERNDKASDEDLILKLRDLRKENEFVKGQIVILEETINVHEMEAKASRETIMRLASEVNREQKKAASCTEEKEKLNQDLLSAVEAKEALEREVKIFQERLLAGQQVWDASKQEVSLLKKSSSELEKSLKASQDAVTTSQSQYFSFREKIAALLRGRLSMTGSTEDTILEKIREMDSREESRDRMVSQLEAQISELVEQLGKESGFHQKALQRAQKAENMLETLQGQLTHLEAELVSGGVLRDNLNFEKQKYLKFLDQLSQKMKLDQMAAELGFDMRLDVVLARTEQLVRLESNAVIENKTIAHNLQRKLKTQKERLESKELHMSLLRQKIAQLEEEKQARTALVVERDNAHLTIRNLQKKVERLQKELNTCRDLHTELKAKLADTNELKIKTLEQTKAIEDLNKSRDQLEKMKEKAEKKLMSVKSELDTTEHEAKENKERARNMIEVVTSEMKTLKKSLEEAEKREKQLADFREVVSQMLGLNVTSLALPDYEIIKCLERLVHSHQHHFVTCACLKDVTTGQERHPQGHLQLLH
Experiment: co-IP; data not presented; cells, antibodies and conditions not told

With “Inositol-requiring enzyme 1 alpha (IRE1α) (from UniProt O75460 19-977)” the binding was “no binding”.
